PMC8856959
No constants are given. Whether binding was seen depends on the method and setting. In cells and extracts the contact can be indirect. Sequences can lack the tags named with a protein.

Sequences of proteins named here, by UniProt entry; tags and fusion partners are left off.
UniProt P06748: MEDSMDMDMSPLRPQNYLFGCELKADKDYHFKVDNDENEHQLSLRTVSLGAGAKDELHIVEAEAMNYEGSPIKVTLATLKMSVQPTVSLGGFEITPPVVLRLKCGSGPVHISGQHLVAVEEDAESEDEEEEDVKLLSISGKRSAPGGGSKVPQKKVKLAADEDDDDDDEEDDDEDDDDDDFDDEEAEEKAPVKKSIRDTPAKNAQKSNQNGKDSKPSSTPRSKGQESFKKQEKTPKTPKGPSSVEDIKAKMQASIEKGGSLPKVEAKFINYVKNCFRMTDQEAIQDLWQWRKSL

Biological target: flag-tagged NPM1 (UniProt P06748)
Assay: co-IP; H1299 cells co-transfected with HA-tagged Puf-A (wild type or mutant) and flag-tagged NPM1; lysates precipitated with antibodies against HA or flag, immunoblotted with tag antibodies

B1: HA-tagged Puf-A mutant (478RRR480 to 478GGG480) (protein, UniProt Q15397 1-648)
chain: MEVKGKKQFTGKSTKTAQEKNRFHKNSDSGSSKTFPTRKVAKEGGPKVTSRNFEKSITKLGKKGVKQFKNKQQGDKSPKNKFQPANKFNKKRKFQPDGRSDESAAKKPKWDDFKKKKKELKQSRQLSDKTNYDIVVRAKQMWEILRRKDCDKEKRVKLMSDLQKLIQGKIKTIAFAHDSTRVIQCYIQYGNEEQRKQAFEELRDDLVELSKAKYSRNIVKKFLMYGSKPQIAEIIRSFKGHVRKMLRHAEASAIVEYAYNDKAILEQRNMLTEELYGNTFQLYKSADHRTLDKVLEVQPEKLELIMDEMKQILTPMAQKEAVIKHSLVHKVFLDFFTYAPPKLRSEMIEAIREAVVYLAHTHDGARVAMHCLWHGTPKDRKVIVKTMKTYVEKVANGQYSHLVLLAAFDCIDDTKLVKQIIISEIISSLPSIVNDKYGRKVLLYLLSPRDPAHTVREIIEVLQKGDGNAHSKKDTEVGGGELLESISPALLSYLQEHAQEVVLDKSACVLVSDILGSATGDVQPTMNAIASLAATGLHPGGKDGELHIAEHPAGHLVLKWLIEQDKKMKENGREGCFAKTLVEHVGMKNLKSWASVNRGAIILSSLLQSCDLEVANKVKAALKSLIPTLEKTKSTSKGIEILLEKLST
With B1 the binding was “no binding”.
